At least one structure is not confirmed: it was looked up by name or label, or the drawing left a doubt.
Experiment: 15N NMR chemical shift as a means of determining selectivity to H2S removal
Assay type: physicochemical
Conditions: 90% by wt. amine in 10% by wt. D2O, 35° C.; liquid ammonia at 25° C. as zero reference
Procedure: Another means for determining whether an amino compound is selective to H2 S removal is by measuring its 15N nuclear magnetic resonance (NMR) chemical shift. […] D2 O at 35° C. is measured by a spectrometer using liquid (neat) ammonia at 25° C. as a zero reference value. For example, N-(2-hydroxyethoxyethyl)pyrrolidine (HEEP) has a ^15 N NMR chemical shift value of δ+53.2 ppm whereas diethylmonoethanolamine (DEAE), N-methyl-N-tertiarybutylaminoethoxyethanoland methyldiethanolamine (MDEA) have ^15 N NMR chemical shift values of δ+43.7, δ+45.0 and δ+27.4 ppm, respectively.

## CCN(CC)CCO [DEAE, diethylmonoethanolamine]
  15N NMR chemical shift (δ+): 43.7 ppm
